According to article PMC12583513, “Deciphering the molecular mechanism of the bacterial division motor TolQRA” (Cell Discovery, 2025):
Positions count from the first letter of the chain named. Names and notes keep the numbering of the source. No constants are given. Whether binding was seen depends on the method and setting. Binding seen in cells or lysates may run through a third protein. A result given as binding can be weak or reduced; the word gives no strength. Tags and fused reporters may be left off the sequences shown.

Chains of the proteins cited; added tags and fusions are not shown. Lines headed by an entry give the natural chain unless they say otherwise; changes in a name come on top.
UniProt P19934: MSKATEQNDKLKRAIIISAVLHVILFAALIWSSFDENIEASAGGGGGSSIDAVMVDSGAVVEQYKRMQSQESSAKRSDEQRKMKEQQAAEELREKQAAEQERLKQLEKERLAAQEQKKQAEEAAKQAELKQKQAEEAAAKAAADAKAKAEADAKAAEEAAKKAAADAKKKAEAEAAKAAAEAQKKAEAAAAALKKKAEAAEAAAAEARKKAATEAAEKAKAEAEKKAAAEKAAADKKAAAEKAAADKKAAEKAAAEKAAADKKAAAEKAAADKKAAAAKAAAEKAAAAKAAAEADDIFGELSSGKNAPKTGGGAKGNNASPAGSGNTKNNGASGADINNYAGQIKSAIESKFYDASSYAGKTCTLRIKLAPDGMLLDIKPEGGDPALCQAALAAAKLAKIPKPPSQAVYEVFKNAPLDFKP

Experiments:
[1] = molecular target: TolA V55C with C-terminal eight-histidine tag (Escherichia coli (strain K12)) (UniProt P19934); experiment: cross-linking; disulfide between cysteines introduced in TolR_β6 and TolA_β; complex shifted to a higher molecular weight (Supplementary Fig. S9b)
[2] = molecular target: TolA V53C with C-terminal eight-histidine tag (Escherichia coli (strain K12)) (UniProt P19934); experiment: as above

B1: TolR L137C with C-terminal strep-tag (protein, UniProt P0ABV6 1-142)
chain: MARARGRGRRDLKSEINIVPLLDVLLVLLLIFMATAPIITQSVEVDLPDATESQAVSSNDNPPVIVEVSGIGQYTVVVEKDRLERLPPEQVVAEVSSRFKANPKTVFLIGGAKDVPYDEIIKALNLLHSAGVKSVGCMTQPI
[1]
  binding: binds

B2: TolR V135C with C-terminal strep-tag (protein, UniProt P0ABV6 1-142)
chain: B1 chain with V135C, C137L
[2]
  binding: binds
